Source: article PMC8990465
These are yes or no findings as the source states them, for the method shown. In cells and extracts the contact can be indirect. Some results given as binding are weak or reduced against the parent protein; the word gives no strength. Where a sequence is shown, tags or fusion partners need not be part of it.

T1: ATP5O overexpressed with 3xflag (UniProt P48047)
T1 sequence: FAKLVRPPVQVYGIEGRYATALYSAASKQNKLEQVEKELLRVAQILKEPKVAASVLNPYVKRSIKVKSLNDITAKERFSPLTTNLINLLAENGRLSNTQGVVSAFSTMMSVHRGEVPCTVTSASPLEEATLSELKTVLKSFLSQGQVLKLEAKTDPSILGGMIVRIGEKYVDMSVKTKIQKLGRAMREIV

T2: CLDN10 (Claudin-10) overexpressed with 3xflag (UniProt P78369)
T2 sequence: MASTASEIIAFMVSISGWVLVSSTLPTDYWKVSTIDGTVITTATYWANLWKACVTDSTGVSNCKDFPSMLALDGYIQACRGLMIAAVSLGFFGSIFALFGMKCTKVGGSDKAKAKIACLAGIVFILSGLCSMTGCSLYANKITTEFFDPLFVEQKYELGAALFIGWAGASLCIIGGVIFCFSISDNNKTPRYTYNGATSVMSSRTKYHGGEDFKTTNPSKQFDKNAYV


Experiments:
[1] = biological target: T1, ATP5O overexpressed with 3xflag; assay: co-IP; Flag IP from mitochondrial protein of the ATP5O (3xflag) stably transfected Caki-1 cell line; western blot
[2] = biological target: T2, CLDN10 (Claudin-10) overexpressed with 3xflag; assay: co-IP; anti-Flag M2 magnetic beads in cell lysate of CLDN10 overexpression and control groups, overnight at 4 °C, washed 3 times with lysis buffer; western blot

| binding [1] | binding [2] | Binder |
| --- | --- | --- |
| binds |  | CLDN10 protein in the mitochondria of ATP5O-3xflag Caki-1 cells (protein, UniProt P78369 1-228) MASTASEIIAFMVSISGWVLVSSTLPTDYWKVSTIDGTVITTATYWANLWKACVTDSTGVSNCKDFPSMLALDGYIQACRGLMIAAVSLGFFGSIFALFGMKCTKVGGSDKAKAKIACLAGIVFILSGLCSMTGCSLYANKITTEFFDPLFVEQKYELGAALFIGWAGASLCIIGGVIFCFSISDNNKTPRYTYNGATSVMSSRTKYHGGEDFKTTNPSKQFDKNAYV |
|  | binds | ATP5O protein (ATP synthase subunit O, mitochondrial) (protein, UniProt P48047 24-213) FAKLVRPPVQVYGIEGRYATALYSAASKQNKLEQVEKELLRVAQILKEPKVAASVLNPYVKRSIKVKSLNDITAKERFSPLTTNLINLLAENGRLSNTQGVVSAFSTMMSVHRGEVPCTVTSASPLEEATLSELKTVLKSFLSQGQVLKLEAKTDPSILGGMIVRIGEKYVDMSVKTKIQKLGRAMREIV |
